Values from PubChem BioAssay AID652272 (Drosophila RNAi Screening Center, 2013)
Screen: 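Genes whose knock-down decreases or increases Hedgehog reporter output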 (primary screen). System: Drosophila clone 8 (Cl8) cells. Knock-down reagent: long dsRNA against Drosophila genes. Measurement: 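Plate reader light from a firefly reporter under a ptc promoter fragment that responds to Hedgehog, with Renilla light as transfection reference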. Reading the numbers: firefly Hh reporter signal: higher = more ptc reporter light; Renilla reference signal: higher = more Renilla control light. Hit rule: 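Called a hit if the two-replicate mean z-score lies below -2 or above +3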. Meaning of the calls: active = hit: reporter lowered or raised; inactive = not a hit.
The screen tested about 21,000 reagents; shown is an unselected part of those that have a named target and a result. In the full data, 503 (2.4%) are marked active. 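Raw plate light values, not normalised; calls rest on replicate z-scores that were not deposited; hits include reporter decreases as well as increases.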 Entries without a mark were called inactive. The record does not give: the amount of reagent, the time to read-out.

Against CG10802 (GeneID 31318) [DRSC17762], the values are firefly Hh reporter signal, replicate 1 = 2.04e5; firefly Hh reporter signal, replicate 2 = 1.28e5; Renilla reference signal, replicate 1 = 4544; Renilla reference signal, replicate 2 = 4692.
For CG42564 (GeneID 40788) [DRSC12518], the entry reads firefly Hh reporter signal, replicate 1 = 62323; firefly Hh reporter signal, replicate 2 = 1.03e5; Renilla reference signal, replicate 1 = 2502; Renilla reference signal, replicate 2 = 3293.
Against CG13544 (GeneID 37673) [DRSC04186], the values are firefly Hh reporter signal, replicate 1 = 98266; firefly Hh reporter signal, replicate 2 = 44816; Renilla reference signal, replicate 1 = 2592; Renilla reference signal, replicate 2 = 4122.
Silencing of Mpv17 (GeneID 43831) [DRSC17198] gave: firefly Hh reporter signal, replicate 1 = 73056; firefly Hh reporter signal, replicate 2 = 2.08e5; Renilla reference signal, replicate 1 = 2346; Renilla reference signal, replicate 2 = 8432.
Knock-down of CG17271 (GeneID 42463) [DRSC15210] came out at: firefly Hh reporter signal, replicate 1 = 5.35e5; firefly Hh reporter signal, replicate 2 = 89345; Renilla reference signal, replicate 1 = 30976; Renilla reference signal, replicate 2 = 6864.
Depletion of corolla (GeneID 32739) [DRSC20102] resulted in: firefly Hh reporter signal, replicate 1 = 1.09e5; firefly Hh reporter signal, replicate 2 = 1.34e5; Renilla reference signal, replicate 1 = 2466; Renilla reference signal, replicate 2 = 2804.
For Su(fu) (GeneID 41565) [DRSC16871] the deposit lists firefly Hh reporter signal, replicate 1 = 2.00e5 (active); firefly Hh reporter signal, replicate 2 = 1.19e5; Renilla reference signal, replicate 1 = 5297; Renilla reference signal, replicate 2 = 3117.
After knock-down of pcx (GeneID 31204) [DRSC18186] the results were firefly Hh reporter signal, replicate 1 = 70070; firefly Hh reporter signal, replicate 2 = 1.64e5; Renilla reference signal, replicate 1 = 1372; Renilla reference signal, replicate 2 = 7331.
With knock-down of pcx (GeneID 31204) [DRSC18187], the record shows firefly Hh reporter signal, replicate 1 = 97410; firefly Hh reporter signal, replicate 2 = 2.31e5; Renilla reference signal, replicate 1 = 2304; Renilla reference signal, replicate 2 = 10979.
pcx (GeneID 31204) [DRSC18188] gave firefly Hh reporter signal, replicate 1 = 70265; firefly Hh reporter signal, replicate 2 = 2.60e5; Renilla reference signal, replicate 1 = 2672; Renilla reference signal, replicate 2 = 11216.
For pcx (GeneID 31204) [DRSC18189], the entry reads firefly Hh reporter signal, replicate 1 = 82422; firefly Hh reporter signal, replicate 2 = 1.94e5; Renilla reference signal, replicate 1 = 1739; Renilla reference signal, replicate 2 = 8680.
After knock-down of pcx (GeneID 31204) [DRSC18190], the screen gave firefly Hh reporter signal, replicate 1 = 1.11e5; firefly Hh reporter signal, replicate 2 = 2.17e5; Renilla reference signal, replicate 1 = 2464; Renilla reference signal, replicate 2 = 9708.
For pcx (GeneID 31204) [DRSC18816], the values are firefly Hh reporter signal, replicate 1 = 2.33e5; firefly Hh reporter signal, replicate 2 = 1.35e5; Renilla reference signal, replicate 1 = 5204; Renilla reference signal, replicate 2 = 4980.
With knock-down of CR11235 (GeneID 10178883) [DRSC20480], the screen gave firefly Hh reporter signal, replicate 1 = 87300; firefly Hh reporter signal, replicate 2 = 1.47e5; Renilla reference signal, replicate 1 = 3395; Renilla reference signal, replicate 2 = 6551.
Against Pof (GeneID 37947) [DRSC04405] the deposit lists firefly Hh reporter signal, replicate 1 = 1.03e5; firefly Hh reporter signal, replicate 2 = 55714; Renilla reference signal, replicate 1 = 3735; Renilla reference signal, replicate 2 = 2121.
Against sinah (GeneID 39885) [DRSC09910], the entry reads firefly Hh reporter signal, replicate 1 = 1.99e5; Renilla reference signal, replicate 1 = 7292; Renilla reference signal, replicate 2 = 5467.
CG14439 (GeneID 31614) [DRSC17931] showed firefly Hh reporter signal, replicate 1 = 58919; firefly Hh reporter signal, replicate 2 = 2.67e5; Renilla reference signal, replicate 1 = 2296; Renilla reference signal, replicate 2 = 9921.
Silencing of CG31088 (GeneID 318590) [DRSC13123] gave: firefly Hh reporter signal, replicate 1 = 1974; firefly Hh reporter signal, replicate 2 = 2.29e5; Renilla reference signal, replicate 1 = 474; Renilla reference signal, replicate 2 = 4077.
Antp (GeneID 40835) [DRSC12490] showed firefly Hh reporter signal, replicate 1 = 75840; firefly Hh reporter signal, replicate 2 = 51393; Renilla reference signal, replicate 1 = 2928; Renilla reference signal, replicate 2 = 1929.
Knock-down of SH3PX1 (GeneID 39136) [DRSC11139] gave: firefly Hh reporter signal, replicate 1 = 30176; firefly Hh reporter signal, replicate 2 = 56981; firefly Hh reporter signal, replicate 3 = 44736; Renilla reference signal, replicate 1 = 5931; Renilla reference signal, replicate 2 = 3156.
Depletion of CG8128 (GeneID 32504) [DRSC20084] resulted in: firefly Hh reporter signal, replicate 1 = 1.14e5; firefly Hh reporter signal, replicate 2 = 1.24e5; Renilla reference signal, replicate 1 = 2658; Renilla reference signal, replicate 2 = 3261.
After knock-down of Lcp4 (GeneID 35820) [DRSC07458], the screen gave firefly Hh reporter signal, replicate 1 = 1.05e5; firefly Hh reporter signal, replicate 2 = 62646; Renilla reference signal, replicate 1 = 2711; Renilla reference signal, replicate 2 = 4935.
CG7333 (GeneID 42334) [DRSC16229] showed firefly Hh reporter signal, replicate 1 = 7.79e5; firefly Hh reporter signal, replicate 2 = 1.97e5; Renilla reference signal, replicate 1 = 39117; Renilla reference signal, replicate 2 = 4992.
Vdup1 (GeneID 38023) [DRSC08586] showed firefly Hh reporter signal, replicate 1 = 91032; firefly Hh reporter signal, replicate 2 = 50660; Renilla reference signal, replicate 1 = 2821; Renilla reference signal, replicate 2 = 4291.
With knock-down of CG1529 (GeneID 33077) [DRSC20515] the results were firefly Hh reporter signal, replicate 1 = 1.10e5; firefly Hh reporter signal, replicate 2 = 4.32e5; firefly Hh reporter signal, replicate 3 = 1.42e5; Renilla reference signal, replicate 1 = 4432; Renilla reference signal, replicate 2 = 3115.
Knock-down of Vps4 (GeneID 32777) [DRSC19338] came out at: firefly Hh reporter signal, replicate 1 = 80160; firefly Hh reporter signal, replicate 2 = 65030; Renilla reference signal, replicate 1 = 2420; Renilla reference signal, replicate 2 = 2105.
With knock-down of Skp2 (GeneID 40548) [DRSC12329], the record shows firefly Hh reporter signal, replicate 1 = 1.29e5; firefly Hh reporter signal, replicate 2 = 1.27e5; Renilla reference signal, replicate 1 = 5333; Renilla reference signal, replicate 2 = 4459.

Sorted by “firefly Hh reporter signal, replicate 2” (ascending): 2 of the entries above
Vdup1 (GeneID 38023) [DRSC08586] → firefly Hh reporter signal, replicate 1: 91032; firefly Hh reporter signal, replicate 2: 50660; Renilla reference signal, replicate 1: 2821; Renilla reference signal, replicate 2: 4291
CG7333 (GeneID 42334) [DRSC16229] → firefly Hh reporter signal, replicate 1: 7.79e5; firefly Hh reporter signal, replicate 2: 1.97e5; Renilla reference signal, replicate 1: 39117; Renilla reference signal, replicate 2: 4992
